Patent publication US20210206842A1
Results are given in words; binding and its absence hold for the method and conditions named.

Key:
VHH FC5 [1] = experiment: SPR (Biacore T200), ligand 3A8 captured by anti-mouse IgG, VHH FC5 flowed, 25 °C
VHH FC5 [2] = experiment: SPR, two orientations (Fc-captured mAb; immobilized FC5 with mAb flowed)
[3] = biological target: T1, peptide #2b (20 aa) (human); experiment: ELISA on coated P2b, mAb at the dilutions 1:1000, 1:5000 and 1:10000, Abs 450nm
T1 sequence (peptide): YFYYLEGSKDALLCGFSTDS

VHH FC5 [4] = experiment: SPR, single cycle kinetics, Fc-captured mAb, FC5 flowed, 25 C
VHH FC5 [5] = experiment: SPR (Biacore T200), 1 µM FC5 flowed over captured mAb 3A8

B1: anti-hNav1.7 mAb 3A8 (antibody, V domains shown)
VH: QVQLQQPGAELVKPGASVKLSCKASGYTFTNYWMHWVKQRPGQGLEWIGEINPSNGRANYNEKFKSKATLTVDKSSSTAYMQLSSLTSEDSAVYYCARSPYGYYDYWGQGTTLTVSS
VL: DVLMTQTPLSLPVSLGDQASISCRSSQSLLHSNGNTYFHWYLQKPGQSPKLLIYKVSNRFFGVPDRFSGSGSGTDFTLKISRVEAEDLGVYFCSQITHVPLTFGAGTKLELK
Q: Which results are given for B1?
A: binding (VHH FC5 [1]): no binding (tested: 1 µM (from the legend, not on the sheet)); binding (VHH FC5 [2]): no binding; binding [3]: no binding (tested: 1:1000 dilution); binding (VHH FC5 [4]): no binding; binding (VHH FC5 [5]): no binding (tested: 1 µM)
